From patent publication US11793797B2, “Uses of a lysyl oxidase-like 2 inhibitor” (PHARMAKEA, INC., priority 2016, dated 2023)
At least one compound was matched to its structure with a doubt left.

Key:
[1] = system: TAA-induced liver fibrosis; assay: Thioacetamide (TAA) model of liver fibrosis in mouse; type: in vivo; conditions: oral 30 mg/kg/day starting 3 or 6 weeks after initiation of TAA, assessed at 12 weeks
[2] = system: liver fibrosis in BALB/c.Mdr2-/- mice; assay: Mouse Mdr2 knockout model of biliary fibrosis; type: in vivo; conditions: oral 30 or 60 mg/kg QD from 6 through 12 weeks of age
Protocol: Liver disease develops in the BALB/c.Mdr2−/− mouse model with bridging fibrosis/early cirrhosis between 8 and 12 weeks of age (Ikenaga et al. 2015 Am J Pathology, 185: 325-334). […] At the end of the study, mice were anesthetized with isoflurane (1.5% v/v) via precise vaporizer. After laparotomy, portal pressure was measured directly by inserting a high-fidelity pressure catheter into the portal vein and measuring pressure signals for 5 minutes. Serum was collected for analysis of liver (ALT, AST, ALP, and bilirubin) and kidney (creatinine) biochemistries. Part of the liver was fixed in 10% neutral buffered formalin for histopathological analysis of inflammation, necrosis and fibrosis by H&E staining and picrosirius red staining. Collagen area fraction was measured from picrosirius red stained images using an algorithm that separates the red stained collagen from non-specific staining through color subtraction and thresholding of the processed image. Sections were analyzed in random order using the same threshold value for each set. Data were deconvolved after analysis to identify group assignment. Collagen content was determined from a portion of the liver tissue using hydroxyproline analysis.

NCc1cc(Oc2cccc(C(=O)N3C[C@@H](O)[C@H](F)C3)c2)nc(C(F)(F)F)c1 [Compound 1, (R,R)-trans-(3-((4-(aminomethyl)-6-(trifluoromethyl)pyridin-2-yl)oxy)phenyl)(3-fluoro-4-hydroxypyrrolidin-1-yl)methanone]
liver fibrosis, picrosirius red staining [1]: reduced liver fibrosis
liver fibrosis, picrosirius red staining (collagen area fraction) [2]: reduced liver fibrosis
